Here are results for 9 molecules from article PMC6294520.

The chains behind the UniProt entries cited, without tags or fusion partners.
UniProt Q9Y4F3: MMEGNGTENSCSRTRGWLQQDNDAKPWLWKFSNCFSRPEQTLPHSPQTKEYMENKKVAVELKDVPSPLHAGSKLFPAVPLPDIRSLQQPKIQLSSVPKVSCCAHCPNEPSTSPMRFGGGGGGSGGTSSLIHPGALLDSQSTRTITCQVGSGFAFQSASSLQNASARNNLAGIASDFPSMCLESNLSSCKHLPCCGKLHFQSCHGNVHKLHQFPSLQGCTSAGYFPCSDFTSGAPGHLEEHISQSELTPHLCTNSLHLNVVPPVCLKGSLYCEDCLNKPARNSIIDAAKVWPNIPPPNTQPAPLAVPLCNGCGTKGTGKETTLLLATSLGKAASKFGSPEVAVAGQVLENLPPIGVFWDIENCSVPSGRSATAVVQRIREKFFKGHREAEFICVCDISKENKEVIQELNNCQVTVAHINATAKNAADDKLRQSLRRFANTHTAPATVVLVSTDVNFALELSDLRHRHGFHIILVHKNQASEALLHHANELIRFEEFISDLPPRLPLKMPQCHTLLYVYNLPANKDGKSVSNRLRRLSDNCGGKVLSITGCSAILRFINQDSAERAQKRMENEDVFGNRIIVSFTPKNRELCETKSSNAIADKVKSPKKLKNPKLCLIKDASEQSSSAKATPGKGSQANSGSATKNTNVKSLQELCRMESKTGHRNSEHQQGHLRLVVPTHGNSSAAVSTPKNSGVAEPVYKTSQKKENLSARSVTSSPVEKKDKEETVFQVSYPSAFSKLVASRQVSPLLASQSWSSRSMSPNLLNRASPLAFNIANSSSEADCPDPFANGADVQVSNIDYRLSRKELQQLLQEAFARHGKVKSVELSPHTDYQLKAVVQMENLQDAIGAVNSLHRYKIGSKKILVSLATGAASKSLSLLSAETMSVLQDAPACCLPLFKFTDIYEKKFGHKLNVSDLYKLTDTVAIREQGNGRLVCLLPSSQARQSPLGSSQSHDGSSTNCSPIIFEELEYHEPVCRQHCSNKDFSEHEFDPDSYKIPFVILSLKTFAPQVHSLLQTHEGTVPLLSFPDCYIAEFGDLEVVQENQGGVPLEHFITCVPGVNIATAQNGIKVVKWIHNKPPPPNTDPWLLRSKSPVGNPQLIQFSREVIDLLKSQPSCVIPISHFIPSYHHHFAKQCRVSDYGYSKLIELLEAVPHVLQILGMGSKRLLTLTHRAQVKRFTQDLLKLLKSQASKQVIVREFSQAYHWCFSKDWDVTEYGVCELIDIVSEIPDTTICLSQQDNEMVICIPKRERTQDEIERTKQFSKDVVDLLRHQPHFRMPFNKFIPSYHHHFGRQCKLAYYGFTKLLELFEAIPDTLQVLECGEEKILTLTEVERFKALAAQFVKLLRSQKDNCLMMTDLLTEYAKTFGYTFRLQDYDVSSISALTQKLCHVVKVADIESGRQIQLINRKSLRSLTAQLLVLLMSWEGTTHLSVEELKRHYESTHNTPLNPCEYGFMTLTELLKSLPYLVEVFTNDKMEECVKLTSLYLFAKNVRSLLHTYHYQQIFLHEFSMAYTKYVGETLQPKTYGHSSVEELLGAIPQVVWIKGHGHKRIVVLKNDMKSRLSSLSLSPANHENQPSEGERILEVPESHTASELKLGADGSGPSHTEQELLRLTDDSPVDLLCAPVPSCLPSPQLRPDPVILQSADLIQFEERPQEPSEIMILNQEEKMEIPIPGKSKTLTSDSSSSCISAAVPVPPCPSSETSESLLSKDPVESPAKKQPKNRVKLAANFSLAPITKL
UniProt A5YKK6: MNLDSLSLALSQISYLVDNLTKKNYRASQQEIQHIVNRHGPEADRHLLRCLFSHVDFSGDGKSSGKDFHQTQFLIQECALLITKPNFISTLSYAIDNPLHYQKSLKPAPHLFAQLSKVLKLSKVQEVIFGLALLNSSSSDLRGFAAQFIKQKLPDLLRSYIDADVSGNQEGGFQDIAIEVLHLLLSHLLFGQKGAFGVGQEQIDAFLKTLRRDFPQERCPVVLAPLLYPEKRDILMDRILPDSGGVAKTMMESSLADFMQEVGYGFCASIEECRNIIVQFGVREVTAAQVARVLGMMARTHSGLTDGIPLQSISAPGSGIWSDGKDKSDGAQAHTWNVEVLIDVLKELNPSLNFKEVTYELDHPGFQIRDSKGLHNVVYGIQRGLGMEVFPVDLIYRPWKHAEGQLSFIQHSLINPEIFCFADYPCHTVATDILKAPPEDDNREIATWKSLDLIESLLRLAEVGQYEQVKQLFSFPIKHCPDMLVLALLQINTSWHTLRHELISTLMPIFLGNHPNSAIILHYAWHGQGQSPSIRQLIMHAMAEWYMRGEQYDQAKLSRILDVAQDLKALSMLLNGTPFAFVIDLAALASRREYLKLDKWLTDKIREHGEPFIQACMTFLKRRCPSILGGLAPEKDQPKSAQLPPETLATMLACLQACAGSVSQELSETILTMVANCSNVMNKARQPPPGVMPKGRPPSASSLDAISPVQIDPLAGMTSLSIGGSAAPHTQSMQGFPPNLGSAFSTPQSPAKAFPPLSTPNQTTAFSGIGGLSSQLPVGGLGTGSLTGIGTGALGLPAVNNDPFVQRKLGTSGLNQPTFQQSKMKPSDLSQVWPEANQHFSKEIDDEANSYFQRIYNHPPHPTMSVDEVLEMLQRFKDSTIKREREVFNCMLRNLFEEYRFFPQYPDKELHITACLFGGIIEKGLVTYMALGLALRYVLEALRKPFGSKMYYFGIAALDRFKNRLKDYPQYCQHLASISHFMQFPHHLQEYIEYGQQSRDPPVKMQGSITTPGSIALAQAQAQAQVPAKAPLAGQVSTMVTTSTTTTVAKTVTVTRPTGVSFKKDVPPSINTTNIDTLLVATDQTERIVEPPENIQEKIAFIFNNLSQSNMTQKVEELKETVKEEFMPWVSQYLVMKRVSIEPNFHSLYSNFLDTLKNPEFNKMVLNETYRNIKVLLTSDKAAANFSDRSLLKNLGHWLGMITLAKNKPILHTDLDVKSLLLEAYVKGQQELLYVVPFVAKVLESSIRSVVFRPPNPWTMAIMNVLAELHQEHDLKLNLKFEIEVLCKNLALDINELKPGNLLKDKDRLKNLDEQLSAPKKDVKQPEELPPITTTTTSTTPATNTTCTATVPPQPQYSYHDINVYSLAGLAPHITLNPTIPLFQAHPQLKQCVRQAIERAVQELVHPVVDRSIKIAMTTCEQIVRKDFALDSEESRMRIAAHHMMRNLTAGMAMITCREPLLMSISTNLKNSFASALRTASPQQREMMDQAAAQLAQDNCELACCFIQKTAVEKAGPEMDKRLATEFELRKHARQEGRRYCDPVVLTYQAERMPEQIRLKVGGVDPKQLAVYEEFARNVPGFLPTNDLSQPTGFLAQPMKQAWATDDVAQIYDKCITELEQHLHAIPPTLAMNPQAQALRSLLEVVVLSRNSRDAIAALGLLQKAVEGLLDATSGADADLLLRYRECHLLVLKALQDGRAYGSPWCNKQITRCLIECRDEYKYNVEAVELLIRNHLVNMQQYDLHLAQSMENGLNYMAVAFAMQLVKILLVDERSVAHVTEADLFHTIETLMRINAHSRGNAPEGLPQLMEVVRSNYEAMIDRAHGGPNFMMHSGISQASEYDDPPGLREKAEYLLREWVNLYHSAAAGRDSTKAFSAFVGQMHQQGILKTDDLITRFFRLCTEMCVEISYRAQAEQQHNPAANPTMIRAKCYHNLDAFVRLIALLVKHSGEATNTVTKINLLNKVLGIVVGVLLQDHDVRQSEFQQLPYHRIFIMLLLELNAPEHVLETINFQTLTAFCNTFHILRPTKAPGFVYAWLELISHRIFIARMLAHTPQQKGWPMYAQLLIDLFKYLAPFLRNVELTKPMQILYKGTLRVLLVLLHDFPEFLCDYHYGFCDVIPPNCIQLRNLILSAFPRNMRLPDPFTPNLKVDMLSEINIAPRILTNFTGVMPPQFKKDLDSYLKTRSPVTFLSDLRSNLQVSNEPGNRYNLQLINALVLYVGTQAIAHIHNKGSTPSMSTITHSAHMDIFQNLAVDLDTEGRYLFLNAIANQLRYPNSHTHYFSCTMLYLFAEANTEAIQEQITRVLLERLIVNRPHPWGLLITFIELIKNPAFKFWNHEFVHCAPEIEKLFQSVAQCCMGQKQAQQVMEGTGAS
UniProt Q8IZH2: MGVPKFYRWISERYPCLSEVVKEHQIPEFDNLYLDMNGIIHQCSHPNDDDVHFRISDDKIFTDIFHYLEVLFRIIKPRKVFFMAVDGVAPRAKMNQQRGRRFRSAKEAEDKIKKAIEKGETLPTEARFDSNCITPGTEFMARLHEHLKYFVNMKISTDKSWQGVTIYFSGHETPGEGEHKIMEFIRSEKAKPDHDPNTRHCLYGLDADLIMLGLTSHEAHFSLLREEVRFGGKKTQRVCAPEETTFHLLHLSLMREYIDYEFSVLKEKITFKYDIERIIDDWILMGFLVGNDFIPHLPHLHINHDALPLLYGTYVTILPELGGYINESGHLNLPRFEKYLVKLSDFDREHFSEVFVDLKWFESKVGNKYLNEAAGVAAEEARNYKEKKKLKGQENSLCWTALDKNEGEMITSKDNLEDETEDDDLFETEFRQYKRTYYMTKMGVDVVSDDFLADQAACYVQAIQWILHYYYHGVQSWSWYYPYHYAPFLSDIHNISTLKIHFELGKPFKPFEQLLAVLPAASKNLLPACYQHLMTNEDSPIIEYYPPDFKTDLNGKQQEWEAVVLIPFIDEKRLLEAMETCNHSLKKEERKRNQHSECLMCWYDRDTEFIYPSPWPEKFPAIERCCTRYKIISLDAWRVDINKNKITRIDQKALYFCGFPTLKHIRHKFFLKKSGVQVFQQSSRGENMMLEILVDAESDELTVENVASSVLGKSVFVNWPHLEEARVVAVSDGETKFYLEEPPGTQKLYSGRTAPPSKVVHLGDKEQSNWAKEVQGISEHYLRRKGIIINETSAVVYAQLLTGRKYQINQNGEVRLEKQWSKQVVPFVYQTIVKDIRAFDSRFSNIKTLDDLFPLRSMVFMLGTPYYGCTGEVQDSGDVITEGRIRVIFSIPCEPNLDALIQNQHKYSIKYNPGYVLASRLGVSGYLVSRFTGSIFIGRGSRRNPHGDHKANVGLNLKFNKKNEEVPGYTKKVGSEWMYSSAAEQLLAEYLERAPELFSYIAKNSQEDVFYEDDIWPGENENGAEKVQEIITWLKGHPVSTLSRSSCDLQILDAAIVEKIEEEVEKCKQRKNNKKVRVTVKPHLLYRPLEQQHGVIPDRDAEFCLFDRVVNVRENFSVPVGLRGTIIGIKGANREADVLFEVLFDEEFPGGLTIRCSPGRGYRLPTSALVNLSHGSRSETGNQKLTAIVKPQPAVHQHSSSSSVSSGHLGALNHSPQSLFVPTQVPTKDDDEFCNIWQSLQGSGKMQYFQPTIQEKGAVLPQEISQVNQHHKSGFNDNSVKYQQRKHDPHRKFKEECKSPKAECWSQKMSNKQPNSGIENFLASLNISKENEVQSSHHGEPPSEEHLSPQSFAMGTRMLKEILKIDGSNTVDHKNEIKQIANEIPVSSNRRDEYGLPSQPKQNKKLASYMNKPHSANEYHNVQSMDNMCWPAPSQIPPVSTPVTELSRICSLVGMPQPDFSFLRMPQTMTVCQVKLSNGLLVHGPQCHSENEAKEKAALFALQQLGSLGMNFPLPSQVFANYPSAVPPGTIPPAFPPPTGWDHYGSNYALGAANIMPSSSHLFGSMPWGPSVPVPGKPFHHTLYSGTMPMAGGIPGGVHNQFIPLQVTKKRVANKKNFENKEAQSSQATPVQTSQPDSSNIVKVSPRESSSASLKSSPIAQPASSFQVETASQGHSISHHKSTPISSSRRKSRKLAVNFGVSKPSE
UniProt Q96F86: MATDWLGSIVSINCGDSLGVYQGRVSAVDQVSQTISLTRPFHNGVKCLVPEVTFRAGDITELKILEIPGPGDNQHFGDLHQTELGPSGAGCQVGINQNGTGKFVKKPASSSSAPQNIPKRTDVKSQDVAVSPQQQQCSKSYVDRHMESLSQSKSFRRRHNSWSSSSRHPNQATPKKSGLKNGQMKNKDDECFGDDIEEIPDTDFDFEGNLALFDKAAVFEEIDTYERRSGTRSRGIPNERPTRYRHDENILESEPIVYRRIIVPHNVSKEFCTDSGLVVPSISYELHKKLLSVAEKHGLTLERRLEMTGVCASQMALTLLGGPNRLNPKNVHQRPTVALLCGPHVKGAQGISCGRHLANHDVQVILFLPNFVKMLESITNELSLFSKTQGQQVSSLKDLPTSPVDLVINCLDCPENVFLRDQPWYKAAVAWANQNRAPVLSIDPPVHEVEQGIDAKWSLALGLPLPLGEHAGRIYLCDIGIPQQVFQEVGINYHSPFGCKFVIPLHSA

Results are given in words; binding and its absence hold for the method and conditions named. In cells and extracts the contact can be indirect. A yes stands for co-enrichment or nearness to the bait. Other partners may have been found. A no says only that the protein was not detected with the bait.

For assay [1], the target named is Full-length FLAG-BirA*-MARF1 (human) (UniProt Q9Y4F3). Nature of the assay: proximity labelling; BioID: HEK293 cells expressing FLAG-BirA*-MARF1 incubated with biotin, lysed under harsh conditions; streptavidin agarose pull-down from benzonase-treated lysates; western blot of endogenous proteins. (Immunoblotting shows a protein as a band on a membrane.)
The target in assay [2] is FLAG-tagged MARF1 (Meiosis arrest female 1) (human) (UniProt Q9Y4F3). The assay is described as follows: affinity purification with mass spectrometry; FLAG-MARF1 induced in stable HEK293 cells; benzonase-treated lysate (50 mM HEPES-NaOH pH 8.0, 100 mM KCl, 2 mM EDTA, 0.1% NP40, 10% glycerol); anti-FLAG M2 magnetic beads, 4°C; MS/MS, SAINT scoring of two replicates against negative controls.

For the molecule “CNOT1, the central subunit of the CCR4-NOT deadenylase complex (from UniProt A5YKK6 1-2376)”, in assay [1], the binding entry is “no binding”.
Turning to “5′-3′ exonuclease XRN1 (from UniProt Q8IZH2 1-1706)”, the binding entry in assay [1] and in assay [2] was “binds” in each case.
In the case of “EDC3 (enhancer of mRNA decapping) (from UniProt Q96F86 1-508)”, the binding result in assay [2] is “binds”.
“DCP2 decapping enzyme (from UniProt Q8IU60 1-420)”: the binding result in assay [1] and in assay [2] was “binds” in each case.

B1: PAN2 (subunit of the PAN2-PAN3 deadenylase complex) (protein, UniProt Q504Q3 1-1202)
chain: MNFEGLDPGLAEYAPAMHSALDPVLDAHLNPSLLQNVELDPEGVALEALPVQESVHIMEGVYSELHSVVAEVGVPVSVSHFDLHEEMLWVGSHGGHATSFFGPALERYSSFQVNGSDDIRQIQSLENGILFLTKNNLKYMARGGLIIFDYLLDENEDMHSLLLTDSSTLLVGGLQNHIIEIDLNTVQETQKYAVETPGVTIMRQTNRFFFCGHTSGKVSLRDLRTFKVEHEFDAFSGSLSDFDVHGNLLAACGFSSRLTGLACDRFLKVYDLRMMRAITPLQVHVDPAFLRFIPTYTSRLAIISQSGQCQFCEPTGLANPADIFHVNPVGPLLMTFDVSASKQALAFGDSEGCVHLWTDSPEPSFNPYSRETEFALPCLVDSLPPLDWSQDLLPLSLIPVPLTTDTLLSDWPAANSAPAPRRAPPVDAEILRTMKKVGFIGYAPNPRTRLRNQIPYRLKESDSEFDSFSQVTESPVGREEEPHLHMVSKKYRKVTIKYSKLGLEDFDFKHYNKTLFAGLEPHIPNAYCNCMIQVLYFLEPVRCLIQNHLCQKEFCLACELGFLFHMLDLSRGDPCQGNNFLRAFRTIPEASALGLILADSDEASGKGNLARLIQRWNRFILTQLHQDMQELEIPQAYRGAGGSSFCSSGDSVIGQLFSCEMENCSLCRCGSETVRASSTLLFTLSYPDGSKSDKTGKNYDFAQVLKRSICLDQNTQAWCDTCEKYQPTIQTRNIRHLPDILVINCEVNSSKEADFWRMQAEVAFKMAVKKHGGEISKNKEFALADWKELGSPEGVLVCPSIEELKNVWLPFSIRMKMTKNKGLDVCNWTDGDEMQWGPARAEEEHGVYVYDLMATVVHILDSRTGGSLVAHIKVGETYHQRKEGVTHQQWYLFNDFLIEPIDKHEAVQFDMNWKVPAILYYVKRNLNSRYNLNIKNPIEASVLLAEASLARKQRKTHTTFIPLMLNEMPQIGDLVGLDAEFVTLNEEEAELRSDGTKSTIKPSQMSVARITCVRGQGPNEGIPFIDDYISTQEQVVDYLTQYSGIKPGDLDAKISSKHLTTLKSTYLKLRFLIDIGVKFVGHGLQKDFRVINLMVPKDQVLDTVYLFHMPRKRMISLRFLAWYFLDLKIQGETHDSIEDARTALQLYRKYLELSKNGTEPESFHKVLKGLYEKGRKMDWKVPEPEGQTSPKNAAVFSSVLAL
Turning to B1, in assay [2], the binding entry is “no binding”.

B2: LSM2 (protein, UniProt Q9Y333 1-95)
chain: MLFYSFFKSLVGKDVVVELKNDLSICGTLHSVDQYLNIKLTDISVTDPEKYPHMLSVKNCFIRGSVVRYVQLPADEVDTQLLQDAARKEALQQKQ
On to B2, for which, in assay [2], the binding result is listed as “binds”.

B3: PATL1 (protein, UniProt Q86TB9 1-770)
chain: MFRYESLEDCPLDEDEDAFQGLGEEDEEIDQFNDDTFGSGAVDDDWQEAHERLAELEEKLPVAVNEQTGNGERDEMDLLGDHEENLAERLSKMVIENELEDPAIMRAVQTRPVLQPQPGSLNSSIWDGSEVLRRIRGPLLAQEMPTVSVLEYALPQRPPQGPEDDRDLSERALPRRSTSPIIGSPPVRAVPIGTPPKQMAVPSFTQQILCPKPVHVRPPMPPRYPAPYGERMSPNQLCSVPNSSLLGHPFPPSVPPVLSPLQRAQLLGGAQLQPGRMSPSQFARVPGFVGSPLAAMNPKLLQGRVGQMLPPAPGFRAFFSAPPSATPPPQQHPPGPGPHLQNLRSQAPMFRPDTTHLHPQHRRLLHQRQQQNRSQHRNLNGAGDRGSHRSSHQDHLRKDPYANLMLQREKDWVSKIQMMQLQSTDPYLDDFYYQNYFEKLEKLSAAEEIQGDGPKKERTKLITPQVAKLEHAYKPVQFEGSLGKLTVSSVNNPRKMIDAVVTSRSEDDETKEKQVRDKRRKTLVIIEKTYSLLLDVEDYERRYLLSLEEERPALMDDRKHKICSMYDNLRGKLPGQERPSDDHFVQIMCIRKGKRMVARILPFLSTEQAADILMTTARNLPFLIKKDAQDEVLPCLLSPFSLLLYHLPSVSITSLLRQLMNLPQSAATPALSNPHLTAVLQNKFGLSLLLILLSRGEDLQSSDPATESTQNNQWTEVMFMATRELLRIPQAALAKPISIPTNLVSLFSRYVDRQKLNLLETKLQLVQGIR
Take B3: the binding result in assay [1] and in assay [2] was “binds” throughout.

B4: LSM1 (protein, UniProt O15116 1-133)
chain: MNYMPGTASLIEDIDKKHLVLLRDGRTLIGFLRSIDQFANLVLHQTVERIHVGKKYGDIPRGIFVVRGENVVLLGEIDLEKESDTPLQQVSIEEILEEQRVEQQTKLEAEKLKVQALKDRGLSIPRADTLDEY
For B4, in assay [2], the binding entry was “binds”.

B5: EDC4 (enhancer of mRNA decapping) (protein, UniProt Q6P2E9 1-1401)
chain: MASCASIDIEDATQHLRDILKLDRPAGGPSAESPRPSSAYNGDLNGLLVPDPLCSGDSTSANKTGLRTMPPINLQEKQVICLSGDDSSTCIGILAKEVEIVASSDSSISSKARGSNKVKIQPVAKYDWEQKYYYGNLIAVSNSFLAYAIRAANNGSAMVRVISVSTSERTLLKGFTGSVADLAFAHLNSPQLACLDEAGNLFVWRLALVNGKIQEEILVHIRQPEGTPLNHFRRIIWCPFIPEESEDCCEESSPTVALLHEDRAEVWDLDMLRSSHSTWPVDVSQIKQGFIVVKGHSTCLSEGALSPDGTVLATASHDGYVKFWQIYIEGQDEPRCLHEWKPHDGRPLSCLLFCDNHKKQDPDVPFWRFLITGADQNRELKMWCTVSWTCLQTIRFSPDIFSSVSVPPSLKVCLDLSAEYLILSDVQRKVLYVMELLQNQEEGHACFSSISEFLLTHPVLSFGIQVVSRCRLRHTEVLPAEEENDSLGADGTHGAGAMESAAGVLIKLFCVHTKALQDVQIRFQPQLNPDVVAPLPTHTAHEDFTFGESRPELGSEGLGSAAHGSQPDLRRIVELPAPADFLSLSSETKPKLMTPDAFMTPSASLQQITASPSSSSSGSSSSSSSSSSSLTAVSAMSSTSAVDPSLTRPPEELTLSPKLQLDGSLTMSSSGSLQASPRGLLPGLLPAPADKLTPKGPGQVPTATSALSLELQEVEPLGLPQASPSRTRSPDVISSASTALSQDIPEIASEALSRGFGSSAPEGLEPDSMASAASALHLLSPRPRPGPELGPQLGLDGGPGDGDRHNTPSLLEAALTQEASTPDSQVWPTAPDITRETCSTLAESPRNGLQEKHKSLAFHRPPYHLLQQRDSQDASAEQSDHDDEVASLASASGGFGTKVPAPRLPAKDWKTKGSPRTSPKLKRKSKKDDGDAAMGSRLTEHQVAEPPEDWPALIWQQQRELAELRHSQEELLQRLCTQLEGLQSTVTGHVERALETRHEQEQRRLERALAEGQQRGGQLQEQLTQQLSQALSSAVAGRLERSIRDEIKKTVPPCVSRSLEPMAGQLSNSVATKLTAVEGSMKENISKLLKSKNLTDAIARAAADTLQGPMQAAYREAFQSVVLPAFEKSCQAMFQQINDSFRLGTQEYLQQLESHMKSRKAREQEAREPVLAQLRGLVSTLQSATEQMAATVAGSVRAEVQHQLHVAVGSLQESILAQVQRIVKGEVSVALKEQQAAVTSSIMQAMRSAAGTPVPSAHLDCQAQQAHILQLLQQGHLNQAFQQALTAADLNLVLYVCETVDPAQVFGQPPCPLSQPVLLSLIQQLASDLGTRTDLKLSYLEEAVMHLDHSDPITRDHMGSVMAQVRQKLFQFLQAEPHNSLGKAARRLSLMLHGLVTPSLP
As for B5, the binding entry in assay [1] and in assay [2] was “binds” each time.
